Data taken from PubChem BioAssay AID504444 (National Center for Advancing Translational Sciences (NCATS), 2011).
Where “and” joins values, the source holds several entries; their conditions need not be identical. Equal entries are not always repeated. In all, about 360,000 compounds went through this assay and about 7,500 (2.1%) were called active. This list was built around the results that the source calls inconclusive (neither active nor inactive); the mix of calls is not that of the screen. Calls follow the shape of the dose curve; as a rule, active = well fitted inhibition curve with a large enough effect; inconclusive = small, poorly fitted or top-dose-only effect, or effect the other way; inactive = flat fitted curve, though single readings scatter. Potencies beside an inconclusive call are fits to weak or partial responses and may not hold up.

Test: Nrf2 qHTS screen for inhibitors; also: nearly all actives have a fitted effect of over 60% in size
Settings: A549 ARE-Fluc reporter, luciferase luminescence, 18-24 h; series mostly up to 46 µM
How it was run: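 Reporter: ARE-Fluc in A549. Exposure: 18-24 h, 37 °C, 5% CO2, 5% FBS OPTI-MEM. Readouts: fluorescent cytotoxicity (CellTiter-Fluor), then luminescent Nrf2 signal after BugLite.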
Potency is read from the fitted curve at half-maximal effect.

| Structure (SMILES) | Potency |
| --- | --- |
| O=S(=O)(c1cccc(NC(=S)N2CCN(c3ccccc3)CC2)c1)C(F)F | inconclusive: 29.1 µM [falling, single point] |
| COc1ccc(/C=C/C(=O)NCc2cn(C)nc2C)cc1COc1ccc(Br)cc1 | active: 18.4 µM |
| FC(F)(F)c1ccnc(Oc2ccc(C3=NCCS3)cc2)c1 | inconclusive: 0.82 µM [activator, full curve, poor fit] |
| C/C(=N\NC(=O)CCc1ccccc1)C1C(=O)c2ccccc2C1=O | inconclusive: 29.1 µM [falling, single point] |
| O=C(CCCc1nc(-c2ccc(Cl)cc2)no1)NC1CCCC1 | active: 4.11 µM |
| Fc1ccc(Cn2nnnc2CN2CCc3ccccc3C2)cc1 | inconclusive: 0.92 µM [falling, partial curve, poor fit] |
| O=C(COc1ccc(Br)cc1)Nc1ccc(C(=O)Nc2ccccc2C(=O)O)cc1 | inactive |
| CCc1ccc(N2C(=O)Cc3c2nc(N)c(C#N)c3N)cc1 | inconclusive: 11.6 µM [activator, partial curve, poor fit] |
| c1ccc(-c2ccc3[nH]ccc3c2)cc1 | inconclusive: 16.4 µM [activator, single point] |
| CC(c1nnc(SCC(=O)Nc2cccnc2Cl)n1Cc1ccccc1)N(C)C (centres undefined) | inconclusive: 29.1 µM [falling, single point] |
| COc1cc(-c2cc(C(=O)NCc3ccco3)c3ccccc3n2)cc(OC)c1OC | inactive |
| Cc1cc(-c2nn(C)c(=O)c3ccccc23)cc(C)c1O | inconclusive: 4.61 µM [falling, full curve] |
| COc1ccccc1Nc1cc(C(=O)NCc2cccnc2)c2ccccc2n1 | inconclusive: 14.6 µM [activator, partial curve, poor fit] |
| O=C(O)CCn1c(O)c(C=C2N=c3ccccc3=N2)sc1=S | inconclusive: 20.6 µM [falling, single point] |
| NC(=O)NC(CC(=O)NCc1ccc2c(c1)OCO2)c1ccccc1Cl (centres undefined) | inconclusive: 20.6 µM [activator, partial curve, poor fit] |
| CCN(CC)CCN(C(=O)c1ccc2ccccc2c1)c1nc2ccc(F)cc2s1 | inconclusive: 14.6 µM [activator, partial curve, poor fit] |
| Cn1c(=O)cc(C(=O)N/N=C/c2ccc(Cl)cc2)[nH]c1=O | inconclusive: 13 µM [activator, partial curve] |
| CCCCNc1nc(Oc2ccc(OCCC)nn2)nc(N(C)C)n1 | inconclusive: 6.51 µM [falling, partial curve, poor fit] |
| CCCC(=O)NC(c1cccs1)c1cc([N+](=O)[O-])c2cccnc2c1O (centres undefined) | active: 20.6 µM |
| COc1ccc(Cn2nnnc2CN2CCC(c3nc4ccccc4s3)CC2)cc1 | active: 23.1 µM |
| COc1ccc(CC(=O)Nc2c(C(=O)Nc3ccc(F)cc3)oc3ccccc23)cc1OC | inconclusive: 11.6 µM [activator, partial curve, poor fit] |
| COc1ccc(/C=N/NC(=O)c2nc(-c3ccccc3)cc(-c3ccccc3)n2)cc1OC | inconclusive: 23.1 µM [falling, partial curve, poor fit] |

Entries shown so far that have two or more sulfur atoms:

| Structure (SMILES) | Potency |
| --- | --- |
| O=S(=O)(c1cccc(NC(=S)N2CCN(c3ccccc3)CC2)c1)C(F)F | inconclusive: 29.1 µM [falling, single point] |
| O=C(O)CCn1c(O)c(C=C2N=c3ccccc3=N2)sc1=S | inconclusive: 20.6 µM [falling, single point] |

Next results follow.

| Structure (SMILES) | Potency |
| --- | --- |
| CCCSc1nc2c(c(=O)n(C)c(=O)n2C)n1Cc1ccc(C)cc1 | inconclusive: 16.4 µM [falling, single point] |
| COc1ccc(NC(=O)C(C)N2c3cccc4cccc(c34)S2(=O)=O)cc1OC (centres undefined) | active: 8.2 µM |
| Cc1cnc(C(=O)OCC(=O)c2csc(N3CCCCC3)n2)cn1 | inconclusive: 16.4 µM [activator, single point] |
| COc1ccc(-c2nc3ccccc3o2)cc1NC(=O)CSc1ccc(Cl)cc1 | inconclusive: 2.31 µM [activator, partial curve, poor fit] and inconclusive: 2.06 µM [activator, partial curve, poor fit] |
| Clc1cccc(CNc2nnnn2-c2ccccc2)c1 | inconclusive: 29.1 µM [falling, single point] |
| O=C(NC(CC(=O)N1CCN(c2ccc([N+](=O)[O-])cc2)CC1)c1ccccc1)c1ccccc1Cl (centres undefined) | inconclusive: 0.58 µM [falling, partial curve] |
| Cc1c(C(=O)Nc2ccc(F)cc2)nnn1-c1cccc(C(F)(F)F)c1 | active: 20.6 µM |
| CC(=O)c1ccc(OCCCC(=O)Nc2ccc(Cl)c(S(=O)(=O)N3CCOCC3)c2)cc1 | active: 5.17 µM |
| COc1cccc(/C=N/Nc2nc3ccccc3n3cnnc23)c1O | inconclusive: 29.1 µM [falling, single point] |
| O=[N+]([O-])c1ccc(CN2CCN(c3ccccc3)CC2)o1 | inconclusive: 2.59 µM [falling, partial curve] |
| COc1ccccc1NC(=S)N(Cc1cccs1)C1CCCC1 | inconclusive: 29.1 µM [falling, single point] |
| Fc1ccc(-c2csc(N3CCOCC3)n2)cc1 | inconclusive: 16.4 µM [activator, partial curve] |
| Cc1ccc(CN(C(=O)COc2ccc(C(C)C)cc2)C2CCS(=O)(=O)C2)o1 (centres undefined) | inactive |
| Cc1ccc(N=Cc2cc3c(cc2O)OC(N)=C(C#N)C3c2ccccc2)cc1 (centres undefined) | inconclusive: 25.9 µM [falling, partial curve, poor fit] |
| CC(=O)Nc1cccc(NC(=O)Cc2ccc3ccccc3c2)c1 | inconclusive: 23.1 µM [falling, single point] |
| CCCCCCSc1ccc(-c2nc3cnccn3c2NCCCC)cc1 | inconclusive: 29.1 µM [falling, single point] |
| C=CCc1cccc(/C=N/NC(=O)C(C)Nc2ccc(C)cc2)c1O (centres undefined) | inconclusive: 32.6 µM [falling, single point] |
| O=C(CN1CCN(S(=O)(=O)c2ccc(Cl)s2)CC1)N1CCCCC1 | inconclusive: 18.4 µM [falling, single point] |
| O=C(CSc1nnnn1C1CC1)N1CCN(c2cccc(Cl)c2)CC1 | inconclusive: 20.6 µM [falling, single point] |
| CCNC(=S)NC1CC2CCCC(C1)N2CCc1ccccc1 (centres undefined) | inconclusive: 6.51 µM [falling, single point] |
| Cc1ccc(CNC(=O)c2nc(-c3ccc(Cl)cc3)n3c2CCCCC3)cc1 | inconclusive: 32.6 µM [falling, partial curve, poor fit] |
| CCC(CC)C(=O)Nc1cccc(C(=O)N2CCCCCC2)c1 | inconclusive: 0.116 µM [falling, full curve, poor fit] |

| Structure (SMILES) | Potency |
| --- | --- |
| Cc1cccc(N2CCN(c3nc(C)cc(C)c3C#N)CC2C)c1 (centres undefined) | inconclusive: 6.51 µM [falling, partial curve] |
| CC1CCN(C(=O)/C(=C/c2ccccc2Cl)c2ccccc2)CC1 | inconclusive: 23.1 µM [falling, partial curve] |
| COc1ccc(CNC(=O)COC(=O)c2n[nH]c3ccccc23)cc1OC | inconclusive: 16.4 µM [falling, partial curve, poor fit] |
| O=S(=O)(N/N=C\c1cn(-c2ccccc2)nc1-c1ccccc1)c1ccccc1 | inconclusive: 16.4 µM [falling, partial curve, poor fit] |
| Cc1ccc(S(=O)(=O)Nc2nc3ccccc3nc2N2CCc3ccccc3C2)cc1 | inconclusive: 29.1 µM [falling, partial curve, poor fit] |
| CC(=O)Nc1ccc(OCC(O)Cn2c(C)nc3ccccc32)cc1 (centres undefined) | inactive |
| Cc1ccc(C)c(NC(=O)CCN2C(=O)c3ccccc3C2=O)c1 | inconclusive: 2.59 µM [falling, partial curve, poor fit] |
| Cc1cc(SCC(=O)Nc2ccccc2C)nc(C)n1 | inconclusive: 1.03 µM [falling, full curve, poor fit] |
| COc1ccc(C2CC(c3ccccc3)Oc3cc(OC)ccc32)cc1 (centres undefined) | inactive |
| Cc1ccc(O)c(N)c1 | inconclusive: 4.61 µM [falling, full curve] |
| COc1ccc(S(=O)(=O)N2CCCCCC2)cc1C(=O)N(C)Cc1ccc(C(C)(C)C)cc1 | inconclusive: 20.6 µM [falling, partial curve, poor fit] |
| COc1ccc2[nH]c(=O)c(CN(Cc3cccnc3)C(=O)Nc3ccccc3)cc2c1 | inconclusive: 32.6 µM [falling, single point] |
| CSc1nc(SCC(=O)NC(c2ccccc2)c2ccccc2)c2c3c(sc2n1)CN(C)CC3 | inconclusive: 4.11 µM [falling, full curve, poor fit] |
| O=C(CN1CCC(C(O)(c2ccccc2)c2ccccc2)CC1)Nc1ccccc1 | inconclusive: 32.6 µM [falling, single point] |
| Cc1cc(N2CCCC(C(=O)Nc3cccc(Cl)c3)C2)n2ncnc2n1 (centres undefined) | inactive |
| Cc1ccc(NS(=O)(=O)c2c(C)nc3sc(C)cn3c2=O)c(C)c1 | inconclusive: 25.9 µM [falling, partial curve] |
| C=CCN(CC=C)C(=O)c1ccc(OC2CCN(S(=O)(=O)N(C)C)CC2)cc1 | inactive |
| COc1cc(CC(=O)OCC(=O)Nc2ncc(Cl)cc2Cl)cc(OC)c1OC | inconclusive: 29.1 µM [activator, single point] |
| CC1Oc2ccccc2C=C1/C=N/NC(=O)[C@@H](C)NC(=O)OC(C)(C)C (some centres undefined) | inconclusive: 16.4 µM [falling, single point] |
| Cc1ccc(-c2cn(-c3ccccc3)c(=S)[nH]2)cc1C | inconclusive: 8.2 µM [activator, partial curve] |

In the list so far, these have bromine:

| Structure (SMILES) | Potency |
| --- | --- |
| COc1ccc(/C=C/C(=O)NCc2cn(C)nc2C)cc1COc1ccc(Br)cc1 | active: 18.4 µM |
| O=C(COc1ccc(Br)cc1)Nc1ccc(C(=O)Nc2ccccc2C(=O)O)cc1 | inactive |
